Results from ChEMBL document CHEMBL4011620, “Design and Discovery of N-(2-Methyl-5'-morpholino-6'-((tetrahydro-2H-pyran-4-yl)oxy)-[3,3'-bipyridin]-5-yl)-3-(trifluoromethyl)benzamide (RAF709): A Potent, Selective, and Efficacious RAF Inhibitor Targeting RAS Mutant Cancers” (J Med Chem, 2017).

Assay: Solubility of compound at pH 6.8 by shake-flask assay
Conditions: buffer

Compound: Cc1ccc(C(=O)Nc2cccc(C(F)(F)F)c2)cc1-c1cc(N2CCOCC2)ncn1
- solubility thermodynamic: < 2 µM
